The experiment concerns the target T1, M3R (Homo sapiens, UniProt P20309).
T1 construct: expressed in transfected cells; host or cells: HEK293 cell membranes
Nature of the experiment: Radioligand binding assay, [3H] NMS. As to conditions: [3H] NMS 0.2 nM. How it is done:
Radioligand binding assays were conducted using MicroBeta2 (PerkinElmer, USA). Membrane protein preparations MOR and M3R were each prepared at a concentration of 2.5 µg/well. The radio ligands [^3H] DAMGO (specific for MOR) and [^3H]-NMS (specific for M3R) were prepared at concentrations of 0.5 nM and 0.2 nM, respectively. […] For each well, 1 µL of the serially diluted test compounds was transferred, followed by the addition of 100 µL of membrane stock solution and 100 µL of radioligand. The plates were sealed and shaken at 300 rpm at room temperature for one hour. Upon completion of the binding assay, the contents of each well were filtered through Unifilter-96 GF/C filter plates (PerkinElmer, USA). The filter plates were dried for one hour at 50°C and sealed. The trapped ^3H (tritium) on the filters was then quantified using the MicroBeta2. The percentage of inhibition or binding was subsequently calculated.

Protein sequences, listed by entry. Tags and fused reporters are not part of them. Lines headed by an entry give the natural chain unless they say otherwise; changes in a name come on top.
UniProt P20309, whole entry: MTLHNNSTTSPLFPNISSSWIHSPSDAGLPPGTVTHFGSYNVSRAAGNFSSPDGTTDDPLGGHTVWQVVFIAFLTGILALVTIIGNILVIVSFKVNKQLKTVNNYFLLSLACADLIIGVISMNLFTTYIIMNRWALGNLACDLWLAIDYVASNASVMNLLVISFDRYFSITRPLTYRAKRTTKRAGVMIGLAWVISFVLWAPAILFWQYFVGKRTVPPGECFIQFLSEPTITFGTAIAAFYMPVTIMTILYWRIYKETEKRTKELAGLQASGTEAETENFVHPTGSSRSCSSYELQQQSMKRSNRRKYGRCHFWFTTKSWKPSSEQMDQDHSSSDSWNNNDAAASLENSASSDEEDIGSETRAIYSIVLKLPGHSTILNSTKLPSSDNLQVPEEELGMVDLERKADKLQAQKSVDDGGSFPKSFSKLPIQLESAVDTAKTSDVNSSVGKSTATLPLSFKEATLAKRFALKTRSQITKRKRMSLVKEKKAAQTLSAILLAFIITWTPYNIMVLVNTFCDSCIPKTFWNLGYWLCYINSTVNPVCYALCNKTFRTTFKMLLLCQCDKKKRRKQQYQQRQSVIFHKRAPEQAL

As a reminder, the Ki is a measure of affinity in units of concentration, obtained from inhibition or displacement. High values mean lower affinity, low ones higher affinity.

As for `CN1[C@@H]2C[C@@H](OC(=O)[C@H](CO)c3ccccc3)C[C@H]1[C@@H]1O[C@@H]12` [scopolamine, reference compound], the Ki was found to be 0.17 ± 0.05 nM.

These data come from PMC12302426, “Dihydrokoumine, a dual-target analgesic with reduced side effects isolated from a traditional Chinese medicine” (Journal of Advanced Research, 2024).
